According to paper doi:10.1101/2025.05.07.652675:
These are yes or no findings as the source states them, for the method shown. Binding calls can cover weak binding; strength is not graded here.

Sequences of proteins named here, by UniProt entry; tags and fusion partners are left off.
UniProt P75862: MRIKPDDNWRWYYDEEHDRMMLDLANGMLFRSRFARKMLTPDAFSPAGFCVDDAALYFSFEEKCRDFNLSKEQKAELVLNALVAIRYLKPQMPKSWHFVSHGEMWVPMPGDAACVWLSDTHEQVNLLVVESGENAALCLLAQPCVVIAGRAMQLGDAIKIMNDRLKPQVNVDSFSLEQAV

Experiments:
[1] = target: FtsZ^F285S, T25 fusion (bacterial two-hybrid) (E. coli) (UniProt P0A9A6); assay: two-hybrid
[2] = target: FtsZ-T25 fusion protein (bacterial two-hybrid) (E. coli) (UniProt P0A9A6); assay: two-hybrid

ZapC (bacterial two-hybrid fusion) (from UniProt P75862 1-180)
binding [1]: binds | binding [2]: binds
